# Percent effect of library compounds

Sequences of proteins named here, by UniProt entry; tags and fusion partners are left off.
UniProt P9WPC5, whole entry: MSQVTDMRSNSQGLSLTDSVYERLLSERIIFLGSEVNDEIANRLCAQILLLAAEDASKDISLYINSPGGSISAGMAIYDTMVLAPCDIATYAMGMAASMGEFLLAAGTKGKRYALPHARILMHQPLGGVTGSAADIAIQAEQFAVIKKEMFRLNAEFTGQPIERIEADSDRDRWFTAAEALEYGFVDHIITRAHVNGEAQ
UniProt P9WPC3, whole entry partner: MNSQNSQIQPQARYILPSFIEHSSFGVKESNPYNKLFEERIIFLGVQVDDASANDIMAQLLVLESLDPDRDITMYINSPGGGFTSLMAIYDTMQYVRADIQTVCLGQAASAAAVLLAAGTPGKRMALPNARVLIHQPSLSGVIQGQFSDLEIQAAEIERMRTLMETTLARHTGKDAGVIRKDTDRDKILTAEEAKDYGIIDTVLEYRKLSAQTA

Data taken from ChEMBL document CHEMBL3988442, “University of Dundee, Small-Polar-MMV Screening Library” (2021).

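ClpP1P2, Mycobacterium tuberculosis (UniProt P9WPC5 and UniProt P9WPC3). Protease assay of ClpP1P2, read by the AMC dye that it sets free. Tested at 50 µM. Higher reads as stronger inhibition, judged from the few compounds that gave an IC50. Most other retested compounds had strongly negative values. About 69,000 compounds were tested under these conditions; 0.015% (about 10) showed 50% or more at least once.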

The filed quantity is “Percent Effect” (%).
The controls that fix the scale are not given in the record; negative values are as filed.
Compounds were drawn at random from those tested, without regard to their results.

* Cc1nn(C)c(C)c1C1CCCN1CC(=O)NCc1ccco1 (stereo unspecified) | -31.91%
* Cc1cc(N(C)C)cc(C2CCN(S(=O)(=O)c3cccnc3)C2)n1 (stereo unspecified) | -25.2%
* Cc1cnn(C2CCCN(C(=O)c3cc4nc(C)ccc4o3)C2)c1 (stereo unspecified) | -26.38%
* CCCc1nc(Nc2cccc(C(N)=O)c2)c2c(n1)c(C)nn2CC | -9.948%
* CCn1ccnc1CN1CCCN(C(=O)Cc2csc(C)n2)CC1 | -10.3%
* CC1(C)CCN(S(=O)(=O)N2CCCC(c3cccc(C(=O)O)c3)C2)CC1 (stereo unspecified) | 2.137%
* Cc1cc2nc(C(C)C)cc(NC(C)c3nncn3C3CCCC3)n2n1 (stereo unspecified) | 11.2%
* N#Cc1cn(C2CC2)c(=O)n(CC(O)c2ccc(Cl)cc2)c1=O (stereo unspecified) | -23.63%
* Cn1nccc1C1CCN(CC(O)c2cccc(F)c2)CC1 (stereo unspecified) | 0.6948%
* CCOCCN1CCN(CC(O)c2cc(Cl)ccc2Cl)CC1 (stereo unspecified) | 5.448%
* CCC(CNC(=O)c1cccc(S(=O)(=O)NC)c1)N1CCCC1 (stereo unspecified) | -2.783%
* COC(=O)CNC(=O)c1cccc(C(=O)N(C)c2ccccc2)c1 | 9.215%
* CC(CC#N)N(C)Cc1ccc(F)cc1F (stereo unspecified) | -7.559%
* N#CC1(C(=O)N2C[C@H]3CC[C@@H]2CN(Cc2cscn2)C3)CCOCC1 | 0.3888%
* O=C1CN(C(=O)C2CCCCC2)CC(O)CN1Cc1ccc(Cl)cc1 (stereo unspecified) | 0.02418%
* CCCNC(=O)Nc1ccc2c(c1)N(S(=O)(=O)CC)CC2 | -7.657%
* Cc1nc(N2CCCC(N3CCCC3)C2)c2cnn(C)c2n1 (stereo unspecified) | 1.26%
* NCCn1cc(C(=O)NCc2ccccc2Cn2cccn2)nn1 | -10.22%
* O=C(Nc1cccc2c1CCCC2)C1CCCN1c1nccs1 (stereo unspecified) | 11.57%
* CC(CNC(=O)Nc1ccc(N(C)C)nc1)Cn1cccn1 (stereo unspecified) | -1.508%
* COCCCN(Cc1ccccc1Cl)C1CCS(=O)(=O)C1 (stereo unspecified) | -17.87%
* CCCSCC(=O)N1C[C@@H]2CC[C@H](C1)N(Cc1ccccn1)C2=O | 4.703%
* CN(C)C(=O)Cc1ccccc1NCc1cc(C#N)ccc1F | -13.94%
* COCC(=O)N1CCO[C@H]2[C@H](OCc3cccnc3)CC[C@@H]21 | 5.771%
* CC(C)S(=O)(=O)C(C)C(=O)NCc1ccccc1COc1ccccc1 (stereo unspecified) | -3.68%
* Cc1ccc(NC(=O)CN2CCOCC2)c(F)c1 | 22.86%
* Cc1ccc(S(=O)(=O)N2CCC3(CC(C(=O)NCC4CC4)=NO3)C2)cc1 (stereo unspecified) | 13.09%
* CNC(=O)C(C)(C)CNC(=O)Nc1cc(C)ccn1 | -13.05%
* COc1cccc(-n2nnc(C(=O)N3CCCCCC3)c2C)c1 | -15.12%
* Cc1ncsc1C(=O)N1CCCC1c1c(C)nn(C)c1Cl (stereo unspecified) | -4.154%
* N#Cc1cccnc1NCCNC(=O)N1CCCC(C(F)(F)F)C1 (stereo unspecified) | -11.32%
* Cc1csc(C2(NCc3ccc(OCC(F)F)cc3)CCCC2)n1 | 2.217%
* O=C1CC2(CCCC2)CC(=O)N1CCn1cnnc1 | -7.096%
* O=C(CNc1cc(F)ccc1OC(F)F)NCC(F)(F)F | 9.999%
* CN(Cc1ccncc1)C1CC2(CCN(C(=O)c3ccnnc3)CC2)C1 | 2.627%
* CCOc1cccc(NC(=O)Cc2cccc(O)c2)n1 | -19.71%
* Cc1noc(C)c1CNC(=O)N1CCCC(C)CC1 (stereo unspecified) | -7.438%
* CC(C)Nc1nc(C(=O)Nc2ccccn2)cs1 | -11.28%
* O=C(C1CCOC1)N1CC[C@@H](O)[C@@H]1Cc1ccccc1 (stereo partly specified) | 8.132%
* c1ccc(-n2cc(CNCC3CCCN3c3cccnn3)cn2)cc1 (stereo unspecified) | 3.227%
* CSCCCNC(=O)C(c1ccccc1C)N(C)C (stereo unspecified) | -2.741%